Source: paper PMC7862700
This is a selection; strong and weak results do not stand in their true shares. For part of these data: At the low end of the ranking the order means little. This is one part of the list. For part of these data: The exact form of the protein is not confirmed.

The chains behind the UniProt entries cited, without tags or fusion partners. Where a name states a change or a piece, a line headed by the entry shows the natural chain unless it says otherwise.
UniProt Q00613: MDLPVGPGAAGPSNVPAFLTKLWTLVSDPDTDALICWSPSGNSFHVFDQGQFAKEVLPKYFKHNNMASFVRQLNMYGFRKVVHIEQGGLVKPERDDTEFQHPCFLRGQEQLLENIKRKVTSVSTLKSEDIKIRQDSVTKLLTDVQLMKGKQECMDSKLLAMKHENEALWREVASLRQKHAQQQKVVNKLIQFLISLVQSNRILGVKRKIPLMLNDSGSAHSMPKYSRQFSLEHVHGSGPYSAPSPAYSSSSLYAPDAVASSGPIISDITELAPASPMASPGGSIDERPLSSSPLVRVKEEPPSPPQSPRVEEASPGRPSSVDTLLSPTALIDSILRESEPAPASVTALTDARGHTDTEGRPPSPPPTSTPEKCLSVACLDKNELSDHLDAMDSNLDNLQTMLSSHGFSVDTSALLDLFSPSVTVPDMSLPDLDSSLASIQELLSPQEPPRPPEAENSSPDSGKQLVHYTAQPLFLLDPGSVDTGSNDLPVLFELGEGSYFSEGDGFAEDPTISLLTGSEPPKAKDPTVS

Experiments:
HSF1 = HSF1 (UniProt Q00613); assay: DAPPL (digital affinity profiling via proximity ligation, sequencing); conditions: 10 mM Tris-HCl pH 7.5, 50 mM NaCl, 1 mM DTT, 4% glycerol, room temperature, 30 min; GST-TFs on glutathione beads, 16-mer random dsDNA library, 0.1% …; high values mean tight binding; double strand, one strand shown; scale: fold enrichment (6-mer frequency, TF over GST control)
ELF2 = target: T1, ELF2 (UniProt Q15723); assay: as above; conditions: 10 mM Tris-HCl pH 7.5, 50 mM NaCl, 1 mM DTT, 4% glycerol, room temperature, 30 min; GST-TFs on glutathione beads, 16-mer random dsDNA library, 0.1% …; high values mean tight binding; double strand, one strand shown; scale: fold enrichment (6-mer frequency, TF over GST control)
T1 sequence: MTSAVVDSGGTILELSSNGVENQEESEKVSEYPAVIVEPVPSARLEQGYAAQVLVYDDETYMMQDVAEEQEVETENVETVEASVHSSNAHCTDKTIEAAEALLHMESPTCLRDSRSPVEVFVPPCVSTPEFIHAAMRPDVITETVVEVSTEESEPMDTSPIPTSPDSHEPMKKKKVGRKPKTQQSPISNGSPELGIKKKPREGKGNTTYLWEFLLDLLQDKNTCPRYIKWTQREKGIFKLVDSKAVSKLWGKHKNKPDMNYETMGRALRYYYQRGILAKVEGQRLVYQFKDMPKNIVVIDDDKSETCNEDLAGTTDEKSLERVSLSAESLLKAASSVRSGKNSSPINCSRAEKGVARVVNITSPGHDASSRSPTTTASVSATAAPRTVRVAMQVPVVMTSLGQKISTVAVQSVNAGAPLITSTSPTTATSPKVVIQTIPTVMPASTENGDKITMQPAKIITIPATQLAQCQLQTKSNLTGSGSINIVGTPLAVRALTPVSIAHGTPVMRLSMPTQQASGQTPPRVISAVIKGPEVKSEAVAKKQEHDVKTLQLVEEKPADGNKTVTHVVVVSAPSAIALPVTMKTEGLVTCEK

Sequence	binding signal (HSF1)	binding signal (ELF2)
GTTCCG	1.05	2.8
CTGCCA	–	1.08
TTGATG	–	1.49
CCTGTT	–	1.89
CTGGTT	1.24	1.41
GTATTC	–	1.3
TGGCCT	1.32	1.34
CTTTCT	–	1.46
AATTCA	–	1.31
TCACAC	–	1.25
GCCCTT	–	1.16
TACTCT	–	1.31
GGAAAC	0.945	1.68
GTATGC	0.865	1.13
CACTGG	1.16	1.01
GATTAT	–	1.04
GTGCTT	–	1.28
CTCAGG	0.973	0.993
ATATCG	1.14	1.13
CTCATT	1.36	1.43
TCTTTA	1.5	1.17
AATCGA	1.38	0.999
GGTCTT	1.05	1.13
ATACGT	0.986	1.07
AAGCAC	1.04	1.2
TCGCGC	–	1.02
CACATT	–	1.15

Sequence	binding signal (HSF1)	binding signal (ELF2)
AGGCTC	1.14	1.07
CTCAAA	1.24	1.13
TTGCGT	0.945	0.986
CGACAC	0.867	1.1
ACATTA	–	1.13
AACTCG	–	1.34
AATCGC	–	1.05
CTAAAA	–	1.12
TATAAC	–	1.23
TACTGC	–	1.22
CGACTT	–	1.86
ATTTCC	–	5.82
CATCCC	–	1.22
CTGGCC	–	1.08
TTCTGC	–	1.38
GAATTT	–	1.27
GCCTCA	–	1.17
CTCTTT	–	1.38
CTGCTA	–	1.34
GAAATG	–	1.91
GCCTTT	–	1.22
TGAATT	–	1.16
AAATTA	–	1.31
GGGCTT	–	1.25
CTCCGC	–	1.42
ATGGGT	–	1.26
ACTGGC	–	1.09

A portion of the results above, for reference:
Sequence	binding signal (HSF1)	binding signal (ELF2)
TACTGC	–	1.22
CGACTT	–	1.86
ATTTCC	–	5.82
CATCCC	–	1.22
